Results as given in PMC5912950.

Target: T1, Mind Bomb-2 (MIB2), endogenous (human (endogenous in HEK293, MDA-MB-231, HT1080, 786-0)) (UniProt Q96AX9)
T1 sequence: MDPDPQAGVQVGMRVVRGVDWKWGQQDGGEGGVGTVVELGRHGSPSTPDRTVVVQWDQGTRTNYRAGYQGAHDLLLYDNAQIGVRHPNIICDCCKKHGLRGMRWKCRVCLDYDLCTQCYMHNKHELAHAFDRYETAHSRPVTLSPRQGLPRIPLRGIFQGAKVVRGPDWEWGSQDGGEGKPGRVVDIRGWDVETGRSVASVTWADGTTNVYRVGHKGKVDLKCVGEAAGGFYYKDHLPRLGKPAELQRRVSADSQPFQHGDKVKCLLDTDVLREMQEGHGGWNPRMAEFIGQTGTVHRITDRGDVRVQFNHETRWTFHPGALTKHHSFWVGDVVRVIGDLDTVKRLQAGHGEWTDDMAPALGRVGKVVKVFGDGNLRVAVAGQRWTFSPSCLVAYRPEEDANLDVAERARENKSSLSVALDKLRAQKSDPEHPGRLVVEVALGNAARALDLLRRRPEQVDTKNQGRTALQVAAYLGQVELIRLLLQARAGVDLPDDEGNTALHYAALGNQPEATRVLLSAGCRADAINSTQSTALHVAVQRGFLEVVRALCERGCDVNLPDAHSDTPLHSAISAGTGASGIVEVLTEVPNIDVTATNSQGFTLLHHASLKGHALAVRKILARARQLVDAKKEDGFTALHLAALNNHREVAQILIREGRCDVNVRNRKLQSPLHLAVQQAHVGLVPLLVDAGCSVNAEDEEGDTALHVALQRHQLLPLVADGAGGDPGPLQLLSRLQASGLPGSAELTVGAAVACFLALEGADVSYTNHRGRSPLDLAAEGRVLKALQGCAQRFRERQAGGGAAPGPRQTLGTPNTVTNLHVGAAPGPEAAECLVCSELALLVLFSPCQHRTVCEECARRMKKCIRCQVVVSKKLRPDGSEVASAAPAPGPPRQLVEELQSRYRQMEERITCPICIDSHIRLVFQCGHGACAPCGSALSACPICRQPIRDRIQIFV
Assay: co-IP; immuno-precipitation of endogenous MIB2 with a MIB2 antibody (protein A/G agarose) from MDA-MB-231 or 786-0 cells treated with FLAG-hTNF (0.8 μg/mL) for the indicated times; western blot

## TNF receptor-1 (TNF-R1), endogenous (human (endogenous in MDA-MB-231, 786-0))
  binding: binds

No constants are given. Whether binding was seen depends on the method and setting. In cells and extracts the contact can be indirect. Binding calls can cover weak binding; strength is not graded here.
